“Also recorded” adds a separate entry of the source.

Data set [1] can be described thus: Binding studies of sensor with Fe3+ (Job's plot, titration, EDTA reversibility). The note with it: ACN/Tris-HCl buffer pH 7.3. On the procedure: Job's method and UV-vis spectra were applied to study the binding stoichiometry between Rh-PK and Fe^3+ and monitored by the absorbance at 555 nm. […] The binding constant of this complex was calculated following a method reported previously (G. E. Tumambac, et al., Tetrahedron 2004, 60, 11293-11297), using absorption values at […] by the equations described below, and was determined to be 1.54×10^7 […].
The equations below was used to calculate the binding constants with stoichiometry of 1:1. L+S↔LS where L=sensor, S=Fe3+ and LS=sensor-Fe^3+ complex. The apparent binding constant is given by
[formula] […] Au, Am, and Ac are the absorbances of solutions of L (before any Fe^3+ was added), during the titration and at saturation, respectively. […] [S]e=[S]o−[LS]e=[S]o−Fc[L]o The apparent binding constant K can then be calculated from […]
The stoichiometry of RhHPA-Fe^3+ was measured using Job's plot and mole ratio plots methods. B. Valeur, Molecular Fluorescence: Principles and Applications, Wiley-VCH. […] To determine the binding constant of chemosensor, a fluorescence titration of different amounts of Fe^3+ into the acetonitrile solution of sensor was carried out. […]
Absorption enhancement observation at 558 nm was plotted against the molar value of the [Fe^3+]/[Fe^3+]+RhHPA and [Fe^3+]/RhHPA. […] Binding constant of fluorescent sensor “RhHPA” was calculated and it was found as K=1.27×10^7 M^−1. […]

For data set [2], the system named is human fibroblast cells (ws1). The data set is described as follows: Confocal imaging of Fe3+ with Rh-PK in ws1 cells. The note with it: colocalization with MitoTracker / LysoTracker. In kind it is cell-based. On the procedure: Human SH-SY5Y neuroblastoma cells and primary fibroblast ws1 cells were obtained from ATCC (American Type Culture Collection). Cells were maintained in a 1:1 mixture of Eagle's Minimal Essential medium (ATCC) and Ham's F12 medium (ATCC) supplemented with 10% fetal bovine serum (FBS, ATCC) without antibiotics and incubated at 37° C. in a humidified 5% CO2 atmosphere. The cells were routinely sub-cultured using 0.05% trypsin-EDTA solution (ATCC). The cells were seeded onto 2-chamber slides for 48 h at 5×10^4 cells/chamber and grown until each chamber was 20-30% confluent. A stock solution of Rh-PK ([…] in […]) was diluted to a concentration of […] in culture medium without FBS. […] The fluorescence responses of the sensor in living cells were measured under a Zeiss LSM 710 laser scanning confocal microscope. […] The REUSE function controlled by Zeiss software was applied to guarantee that all spectra were recorded under the same instrumental conditions.
The ability of Rh-PK to track Fe^3+ in live human fibroblast cells (ws1) was tested via a laser scanning confocal microscope (Zeiss LSM 710). […] Turn on fluorescence was observed, which is likely being triggered by endogenous labile Fe^3+. […]
FIG. 17A to FIG. 17C show the distribution of exchangeable Fe^3+ pools in live fibroblast cells (ws1). […] FIG. 17A is the Rh-PK-Fe3+ fluorescence intensity collected at 547-703 nm (red). […]

Data set [3] deals with Bovine aortic endothelial cells (BAEC). The data set is described as follows: Confocal imaging of Fe3+ with RhHPA in BAEC cells. In kind it is cell-based. The following applies: MitoTracker Green FM and LysoTracker blue DND-22. On the procedure:
Primary cultured Bovine aortic endothelial cells (BAEC) were passaged in Endothelial Basal Medium (Lonza) containing 5% fetal bovine serum. Before the experiment, the cells were cultured to about 8th generation. For experiment preparation, the cells were routinely subcultured using 0.05% trypsin-EDTA solution. The cells were seeded on the 25 cm^2 flask and medium change every two days until a 70% confluency before transferring into disks. The cells were seeded on the 1 cm^2 disk and a medium change the next day.
To evaluate the ability of RhHPA to capture Fe^3+ ions in cells, BAEC cells were incubated with the sensor (10 μM) for 30 min.
BAEC cells were incubated with 10 μM of ferric chloride (FeCl3) at 37° C. for overnight, then 10 μM of RhHPA was added to BAEC cells and was incubated at 37° C. for 30 min.
For the second control experiment, an Fe^3+-chelator SIH was added to iron-loaded and non-iron-loaded cells with RhHPA.
BAEC cells (without Fe^3+ treatment) were treated with RhHPA, MitoTracker Green FM and LysoTracker blue DND-22. As shown in FIG. 20A to FIG. 20H, there are partial colocalization between RhHPA-Fe^3+ and the MitoTracker (FIG. 20E) as well as that between RhHPA-Fe^3+ and the LysoTracker (FIG. 20F); however, a […] colocalization was observed among RhHPA-Fe^3+, MitoTracker and LysoTracker (FIG. 20G).

On to `CCN(CC)c1ccc2c(c1)Oc1cc(N(CC)CC)ccc1C21c2ccccc2C(=O)N1CC/N=C(\C)c1cccc(C(C)=O)n1` [Rh-PK, (E)-2-(2-((1-(6-acetylpyridin-2-yl)ethylidene)amino)ethyl)-3′,6′-bis(diethylamino)spiro[isoindoline-1,9′-xanthen]-3-one], for which the “reversibility of binding on addition of EDTA” value in data set [1] is given as “reversible binding”. Moreover, the “subcellular location of labile Fe^3+ detected” value in data set [2] is “mitochondria and lysosomes”; in data set [2] (listed as Rh-Pk), “mitochondria only”.

As for `CCN(CC)c1ccc2c(c1)Oc1cc(N(CC)CC)ccc1C21c2ccccc2C(=O)N1/N=C/c1cccc(CO)n1` [RhHPA, (E)-3′,6′-bis(diethylamino)-2-(((6-(hydroxymethyl)pyridin-2-yl)methylene)amino)spiro[isoindoline-1,9′-xanthen]-3-one], the “reversibility of binding on addition of EDTA” value in data set [1] is reported as “reversible”. The “subcellular location of exchangeable Fe^3+ pools detected” value in data set [3] was “mitochondria and lysosomes; also recorded: mitochondria and endosomes/lysosomes, not in cytosol”.

For the origin of these results see patent US11685741B2, “Fluorescent probes” (University of Massachusetts, priority 2017, dated 2023).
